{"source": "the supplement of paper PMC8728848", "binders": {"B1": {"name": "EULS2 M3 (Oryza sativa) (protein)", "chain": "MVYCRANPNYAMTARNGAVVLAPANPKDEYQHWIKDMRWSTSIKDEEGYPAFALVNKATGQAIKHSLGQSHPVRLVPYNPEVMDESVLWTESRDVGNGFRCIRMVNNIYLNFDAFHGDKYHGGVRDGTDIVLWKLCEGDSLRWKIQPYYILEQKLISEEDLNSAVDHHHHHH"}}, "experiment_in_all_cases": "glycan array binding signal (z-score within array); higher = stronger binding", "details_in_all_cases": "glycan notation: IUPAC condensed, linker removed", "key": {"[1]": {"molecular_target": "Neu5Ac(a2-6)GlcNAc(b1-4)GlcNAc(b1-4)GlcNAc", "how_it_was_run": "(§1)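 Glycan array data came from 3228 arrays in the Consortium for Functional Glycomics database, and only arrays with an available protein sequence were kept. Glycan names were put into IUPAC-condensed notation, and columns mapping to the same glycan were averaged. The binding signal is a within-array Z-score, averaged across arrays of one protein sequence run at different concentrations or buffers and across linkers. A negative Z-score can be read as non-binding.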"}, "[2]": {"molecular_target": "Neu5Ac(a2-8)Neu5Ac", "how_it_was_run": "as §1"}, "[3]": {"molecular_target": "Neu5Ac(a2-8)Neu5Ac(a2-3)Gal(b1-3)GalNAc(b1-4)[Neu5Ac(a2-3)]Gal(b1-4)Glc", "how_it_was_run": "as §1"}, "[4]": {"molecular_target": "Neu5Ac(a2-8)Neu5Ac(a2-3)Gal(b1-3)GalNAc(b1-4)[Neu5Ac(a2-8)Neu5Ac(a2-3)]Gal(b1-4)Glc", "how_it_was_run": "as §1"}, "[5]": {"molecular_target": "Neu5Ac(a2-8)Neu5Ac(a2-3)Gal(b1-4)Glc", "how_it_was_run": "as §1"}, "[6]": {"molecular_target": "Neu5Ac(a2-8)Neu5Ac(a2-3)Gal(b1-4)GlcNAc", "how_it_was_run": "as §1"}, "[7]": {"molecular_target": "Neu5Ac(a2-8)Neu5Ac(a2-3)[Gal(b1-3)GalNAc(b1-4)]Gal(b1-4)Glc", "how_it_was_run": "as §1"}, "[8]": {"molecular_target": "Neu5Ac(a2-8)Neu5Ac(a2-3)[GalNAc(b1-4)]Gal(b1-4)Glc", "how_it_was_run": "as §1"}, "[9]": {"molecular_target": "Neu5Ac(a2-8)Neu5Ac(a2-8)Neu5Ac", "how_it_was_run": "as §1"}, "[10]": {"molecular_target": "Neu5Ac(a2-8)Neu5Ac(a2-8)Neu5Ac(a2-3)Gal(b1-4)Glc", "how_it_was_run": "as §1"}, "[11]": {"molecular_target": "Neu5Ac(a2-8)Neu5Ac(a2-8)Neu5Ac(a2-3)[Gal(b1-3)GalNAc(b1-4)]Gal(b1-4)Glc", "how_it_was_run": "as §1"}, "[12]": {"molecular_target": "Neu5Ac(a2-8)Neu5Ac(a2-8)Neu5Ac(a2-3)[GalNAc(b1-4)]Gal(b1-4)Glc", "how_it_was_run": "as §1"}, "[13]": {"molecular_target": "Neu5Ac(a2-8)Neu5Ac(a2-8)Neu5Ac(a2-8)Neu5Ac(a2-3)[GalNAc(b1-4)]Gal(b1-4)Glc", "how_it_was_run": "as §1"}, "[14]": {"molecular_target": "Neu5Ac(a2-8)Neu5Gc(a2-3)Gal(b1-4)GlcNAc", "how_it_was_run": "as §1"}, "[15]": {"molecular_target": "Neu5Ac(b2-6)Gal(b1-4)GlcNAc", "how_it_was_run": "as §1"}, "[16]": {"molecular_target": "Neu5Ac(b2-6)GalNAc", "how_it_was_run": "as §1"}, "[17]": {"molecular_target": "Neu5Ac9Ac(a2-3)Gal(b1-3)GlcNAc", "how_it_was_run": "as §1"}, "[18]": {"molecular_target": "Neu5Ac9Ac(a2-3)Gal(b1-4)GlcNAc", "how_it_was_run": "as §1"}, "[19]": {"molecular_target": "Neu5Ac9Ac(a2-6)Gal(b1-4)GlcNAc", "how_it_was_run": "as §1"}, "[20]": {"molecular_target": "Neu5Gc(a2-3)Gal(b1-3)GlcNAc", "how_it_was_run": "as §1"}, "[21]": {"molecular_target": "Neu5Gc(a2-3)Gal(b1-3)[Fuc(a1-4)]GlcNAc", "how_it_was_run": "as §1"}, "[22]": {"molecular_target": "Neu5Gc(a2-3)Gal(b1-4)Glc", "how_it_was_run": "as §1"}, "[23]": {"molecular_target": "Neu5Gc(a2-3)Gal(b1-4)GlcNAc", "how_it_was_run": "as §1"}, "[24]": {"molecular_target": "Neu5Gc(a2-3)Gal(b1-4)GlcNAc(b1-3)Gal(b1-4)GlcNAc(b1-2)Man(a1-3)[Neu5Gc(a2-3)Gal(b1-4)GlcNAc(b1-3)Gal(b1-4)GlcNAc(b1-2)Man(a1-6)]Man(b1-4)GlcNAc(b1-4)GlcNAc", "how_it_was_run": "as §1"}, "[25]": {"molecular_target": "Neu5Gc(a2-3)Gal(b1-4)[Fuc(a1-3)]GlcNAc", "how_it_was_run": "as §1"}, "[26]": {"molecular_target": "Neu5Gc(a2-6)Gal(b1-4)GlcNAc", "how_it_was_run": "as §1"}, "[27]": {"molecular_target": "Neu5Gc(a2-6)GalNAc", "how_it_was_run": "as §1"}, "[28]": {"molecular_target": "Neu5Gc(a2-8)Neu5Ac(a2-3)Gal(b1-4)GlcNAc", "how_it_was_run": "as §1"}, "[29]": {"molecular_target": "Neu5Gc(a2-8)Neu5Gc(a2-3)Gal(b1-4)GlcNAc", "how_it_was_run": "as §1"}, "[30]": {"molecular_target": "Neu5Gc(a2-8)Neu5Gc(a2-3)Gal(b1-4)GlcNAc(b1-3)Gal(b1-4)GlcNAc", "how_it_was_run": "as §1"}, "[31]": {"molecular_target": "Neu5Gc(a2-8)Neu5Gc(a2-6)Gal(b1-4)GlcNAc", "how_it_was_run": "as §1"}, "[32]": {"molecular_target": "Neu5Gc(b2-6)Gal(b1-4)GlcNAc", "how_it_was_run": "as §1"}}, "note": "The other results are listed elsewhere or left out."}
{"binder": "B1", "values": [{"measurement": "glycan array binding signal (z-score)", "setting": "[1]", "value": 0.106}, {"measurement": "glycan array binding signal (z-score)", "setting": "[2]", "value": 0.636}, {"measurement": "glycan array binding signal (z-score)", "setting": "[3]", "value": 1.61}, {"measurement": "glycan array binding signal (z-score)", "setting": "[4]", "value": -0.271}, {"measurement": "glycan array binding signal (z-score)", "setting": "[5]", "value": -0.003}, {"measurement": "glycan array binding signal (z-score)", "setting": "[6]", "value": -0.37}, {"measurement": "glycan array binding signal (z-score)", "setting": "[7]", "value": -0.341}, {"measurement": "glycan array binding signal (z-score)", "setting": "[8]", "value": -0.193}, {"measurement": "glycan array binding signal (z-score)", "setting": "[9]", "value": 0.795}, {"measurement": "glycan array binding signal (z-score)", "setting": "[10]", "value": -0.791}, {"measurement": "glycan array binding signal (z-score)", "setting": "[11]", "value": -0.444}, {"measurement": "glycan array binding signal (z-score)", "setting": "[12]", "value": -0.028}, {"measurement": "glycan array binding signal (z-score)", "setting": "[13]", "value": -0.424}, {"measurement": "glycan array binding signal (z-score)", "setting": "[14]", "value": -0.084}, {"measurement": "glycan array binding signal (z-score)", "setting": "[15]", "value": -0.056}, {"measurement": "glycan array binding signal (z-score)", "setting": "[16]", "value": -0.191}, {"measurement": "glycan array binding signal (z-score)", "setting": "[17]", "value": 0.181}, {"measurement": "glycan array binding signal (z-score)", "setting": "[18]", "value": -0.466}, {"measurement": "glycan array binding signal (z-score)", "setting": "[19]", "value": -0.602}, {"measurement": "glycan array binding signal (z-score)", "setting": "[20]", "value": -0.108}, {"measurement": "glycan array binding signal (z-score)", "setting": "[21]", "value": -0.291}, {"measurement": "glycan array binding signal (z-score)", "setting": "[22]", "value": -0.135}, {"measurement": "glycan array binding signal (z-score)", "setting": "[23]", "value": 0.145}, {"measurement": "glycan array binding signal (z-score)", "setting": "[24]", "value": -0.039}, {"measurement": "glycan array binding signal (z-score)", "setting": "[25]", "value": 0.074}, {"measurement": "glycan array binding signal (z-score)", "setting": "[26]", "value": -0.469}, {"measurement": "glycan array binding signal (z-score)", "setting": "[27]", "value": -0.738}, {"measurement": "glycan array binding signal (z-score)", "setting": "[28]", "value": -0.653}, {"measurement": "glycan array binding signal (z-score)", "setting": "[29]", "value": -0.212}, {"measurement": "glycan array binding signal (z-score)", "setting": "[30]", "value": 0.089}, {"measurement": "glycan array binding signal (z-score)", "setting": "[31]", "value": -0.549}, {"measurement": "glycan array binding signal (z-score)", "setting": "[32]", "value": 0.7}]}
